Measured values as given in the supplement of paper PMC10849652.
This is one part of the list.

Protein sequences, listed by entry. Tags and fused reporters are not part of them. Lines headed by an entry give the natural chain unless they say otherwise; changes in a name come on top.
UniProt Q96DP5: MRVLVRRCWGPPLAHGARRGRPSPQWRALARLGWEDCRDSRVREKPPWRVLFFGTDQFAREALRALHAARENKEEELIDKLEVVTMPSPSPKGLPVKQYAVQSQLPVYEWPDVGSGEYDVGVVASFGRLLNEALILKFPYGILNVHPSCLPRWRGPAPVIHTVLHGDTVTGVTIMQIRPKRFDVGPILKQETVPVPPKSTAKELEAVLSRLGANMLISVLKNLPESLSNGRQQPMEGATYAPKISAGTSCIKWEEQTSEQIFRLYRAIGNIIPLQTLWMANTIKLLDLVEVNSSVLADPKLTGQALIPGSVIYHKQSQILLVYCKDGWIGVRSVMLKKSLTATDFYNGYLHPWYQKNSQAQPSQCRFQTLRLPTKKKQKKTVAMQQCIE
UniProt Q9H903: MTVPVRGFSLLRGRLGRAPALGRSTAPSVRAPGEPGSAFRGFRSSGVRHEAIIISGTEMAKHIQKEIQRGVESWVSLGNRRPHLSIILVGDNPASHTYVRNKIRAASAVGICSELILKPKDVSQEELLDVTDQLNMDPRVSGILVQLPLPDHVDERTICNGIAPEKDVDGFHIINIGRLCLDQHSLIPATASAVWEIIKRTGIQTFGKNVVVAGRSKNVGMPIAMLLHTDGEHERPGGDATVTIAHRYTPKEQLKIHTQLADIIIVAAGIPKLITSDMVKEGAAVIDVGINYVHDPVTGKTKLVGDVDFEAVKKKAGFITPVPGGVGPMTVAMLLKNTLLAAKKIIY
UniProt O43196: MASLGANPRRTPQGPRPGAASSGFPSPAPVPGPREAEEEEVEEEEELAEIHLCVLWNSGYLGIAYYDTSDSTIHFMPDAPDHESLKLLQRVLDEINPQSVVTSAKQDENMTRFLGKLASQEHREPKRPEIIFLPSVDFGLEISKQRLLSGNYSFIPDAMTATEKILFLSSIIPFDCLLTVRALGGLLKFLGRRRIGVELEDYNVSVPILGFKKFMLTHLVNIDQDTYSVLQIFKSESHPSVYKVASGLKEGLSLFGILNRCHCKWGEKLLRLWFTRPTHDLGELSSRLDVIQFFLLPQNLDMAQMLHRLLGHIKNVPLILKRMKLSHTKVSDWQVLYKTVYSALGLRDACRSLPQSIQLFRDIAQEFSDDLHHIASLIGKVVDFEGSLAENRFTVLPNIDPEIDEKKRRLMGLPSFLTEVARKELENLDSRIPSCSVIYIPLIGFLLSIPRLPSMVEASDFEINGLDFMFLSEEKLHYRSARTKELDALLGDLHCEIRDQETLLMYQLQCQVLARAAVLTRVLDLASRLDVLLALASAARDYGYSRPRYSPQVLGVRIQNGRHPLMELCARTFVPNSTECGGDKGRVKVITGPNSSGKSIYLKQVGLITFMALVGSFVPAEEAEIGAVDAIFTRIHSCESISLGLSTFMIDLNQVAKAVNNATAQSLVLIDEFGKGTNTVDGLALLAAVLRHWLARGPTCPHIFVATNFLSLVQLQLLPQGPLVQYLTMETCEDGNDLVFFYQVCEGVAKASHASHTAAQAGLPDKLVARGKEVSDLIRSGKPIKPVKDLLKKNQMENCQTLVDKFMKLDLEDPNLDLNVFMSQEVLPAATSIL
UniProt O15457: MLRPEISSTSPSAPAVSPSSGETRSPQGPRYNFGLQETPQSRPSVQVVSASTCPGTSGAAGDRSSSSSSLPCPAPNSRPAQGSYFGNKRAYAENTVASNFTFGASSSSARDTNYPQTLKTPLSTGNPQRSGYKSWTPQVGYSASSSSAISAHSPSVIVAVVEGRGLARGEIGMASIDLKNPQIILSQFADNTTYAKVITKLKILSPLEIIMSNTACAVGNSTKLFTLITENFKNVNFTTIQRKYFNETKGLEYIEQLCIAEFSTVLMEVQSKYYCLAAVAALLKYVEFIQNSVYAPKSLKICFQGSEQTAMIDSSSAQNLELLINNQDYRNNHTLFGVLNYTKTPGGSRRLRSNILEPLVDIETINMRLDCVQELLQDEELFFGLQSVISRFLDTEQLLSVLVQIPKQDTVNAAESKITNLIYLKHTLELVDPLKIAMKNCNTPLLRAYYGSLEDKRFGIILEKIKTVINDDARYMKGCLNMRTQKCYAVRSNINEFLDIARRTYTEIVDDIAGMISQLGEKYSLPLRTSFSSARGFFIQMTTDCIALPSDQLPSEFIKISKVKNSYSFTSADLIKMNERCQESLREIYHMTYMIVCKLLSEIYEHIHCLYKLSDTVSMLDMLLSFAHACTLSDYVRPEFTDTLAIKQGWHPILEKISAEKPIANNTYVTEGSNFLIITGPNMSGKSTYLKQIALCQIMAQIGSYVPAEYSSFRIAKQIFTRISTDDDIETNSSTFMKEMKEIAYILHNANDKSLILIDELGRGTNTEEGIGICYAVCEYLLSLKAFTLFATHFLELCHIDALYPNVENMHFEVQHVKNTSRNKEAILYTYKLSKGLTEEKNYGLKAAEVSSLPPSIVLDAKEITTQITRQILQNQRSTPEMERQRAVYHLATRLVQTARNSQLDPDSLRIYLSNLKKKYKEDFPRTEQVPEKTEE
UniProt P03928: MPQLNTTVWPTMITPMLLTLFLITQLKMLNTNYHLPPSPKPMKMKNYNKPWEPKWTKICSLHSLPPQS
UniProt Q9NXD2: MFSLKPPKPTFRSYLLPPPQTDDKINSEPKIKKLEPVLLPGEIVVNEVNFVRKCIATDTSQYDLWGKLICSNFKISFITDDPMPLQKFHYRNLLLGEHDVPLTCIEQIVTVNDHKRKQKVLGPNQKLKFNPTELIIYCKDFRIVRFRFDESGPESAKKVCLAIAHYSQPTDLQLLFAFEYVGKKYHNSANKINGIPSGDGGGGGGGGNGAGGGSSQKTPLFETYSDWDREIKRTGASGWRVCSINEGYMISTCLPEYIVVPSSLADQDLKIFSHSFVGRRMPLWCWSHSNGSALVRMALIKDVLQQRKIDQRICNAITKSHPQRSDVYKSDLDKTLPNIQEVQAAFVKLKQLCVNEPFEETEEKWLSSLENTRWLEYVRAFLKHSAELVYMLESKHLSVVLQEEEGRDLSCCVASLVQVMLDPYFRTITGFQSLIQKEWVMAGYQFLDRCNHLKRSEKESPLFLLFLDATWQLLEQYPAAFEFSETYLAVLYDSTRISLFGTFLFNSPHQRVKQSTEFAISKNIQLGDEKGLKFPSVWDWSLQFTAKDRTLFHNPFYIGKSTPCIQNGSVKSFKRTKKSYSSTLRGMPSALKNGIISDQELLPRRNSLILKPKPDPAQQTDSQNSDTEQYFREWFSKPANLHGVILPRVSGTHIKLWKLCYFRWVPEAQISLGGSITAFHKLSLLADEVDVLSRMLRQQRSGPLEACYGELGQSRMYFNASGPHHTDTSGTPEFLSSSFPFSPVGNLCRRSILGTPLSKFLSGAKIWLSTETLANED
UniProt P00414, whole entry, looked up: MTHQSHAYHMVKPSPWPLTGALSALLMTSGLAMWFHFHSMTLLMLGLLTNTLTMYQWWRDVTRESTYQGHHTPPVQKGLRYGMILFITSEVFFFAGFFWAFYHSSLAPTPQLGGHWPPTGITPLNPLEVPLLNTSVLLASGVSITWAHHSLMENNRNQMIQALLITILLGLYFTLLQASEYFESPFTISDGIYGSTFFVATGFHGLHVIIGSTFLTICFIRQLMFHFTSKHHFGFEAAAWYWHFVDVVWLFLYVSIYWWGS
UniProt Q9HCI7: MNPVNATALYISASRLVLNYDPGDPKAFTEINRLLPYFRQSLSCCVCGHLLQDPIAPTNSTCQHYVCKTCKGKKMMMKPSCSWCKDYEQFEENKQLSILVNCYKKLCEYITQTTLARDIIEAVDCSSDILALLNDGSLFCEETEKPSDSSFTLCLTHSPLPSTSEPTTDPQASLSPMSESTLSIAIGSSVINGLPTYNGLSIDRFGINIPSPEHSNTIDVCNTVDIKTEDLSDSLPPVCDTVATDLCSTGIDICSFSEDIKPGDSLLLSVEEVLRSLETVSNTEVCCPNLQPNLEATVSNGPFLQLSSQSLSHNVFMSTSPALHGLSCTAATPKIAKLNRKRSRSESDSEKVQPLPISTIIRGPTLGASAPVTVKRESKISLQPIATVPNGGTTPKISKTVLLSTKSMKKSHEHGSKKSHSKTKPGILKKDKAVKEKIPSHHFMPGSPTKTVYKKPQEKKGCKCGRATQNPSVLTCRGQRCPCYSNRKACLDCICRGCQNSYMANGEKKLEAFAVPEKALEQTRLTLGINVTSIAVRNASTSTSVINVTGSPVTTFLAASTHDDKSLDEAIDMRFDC
UniProt Q96EF0: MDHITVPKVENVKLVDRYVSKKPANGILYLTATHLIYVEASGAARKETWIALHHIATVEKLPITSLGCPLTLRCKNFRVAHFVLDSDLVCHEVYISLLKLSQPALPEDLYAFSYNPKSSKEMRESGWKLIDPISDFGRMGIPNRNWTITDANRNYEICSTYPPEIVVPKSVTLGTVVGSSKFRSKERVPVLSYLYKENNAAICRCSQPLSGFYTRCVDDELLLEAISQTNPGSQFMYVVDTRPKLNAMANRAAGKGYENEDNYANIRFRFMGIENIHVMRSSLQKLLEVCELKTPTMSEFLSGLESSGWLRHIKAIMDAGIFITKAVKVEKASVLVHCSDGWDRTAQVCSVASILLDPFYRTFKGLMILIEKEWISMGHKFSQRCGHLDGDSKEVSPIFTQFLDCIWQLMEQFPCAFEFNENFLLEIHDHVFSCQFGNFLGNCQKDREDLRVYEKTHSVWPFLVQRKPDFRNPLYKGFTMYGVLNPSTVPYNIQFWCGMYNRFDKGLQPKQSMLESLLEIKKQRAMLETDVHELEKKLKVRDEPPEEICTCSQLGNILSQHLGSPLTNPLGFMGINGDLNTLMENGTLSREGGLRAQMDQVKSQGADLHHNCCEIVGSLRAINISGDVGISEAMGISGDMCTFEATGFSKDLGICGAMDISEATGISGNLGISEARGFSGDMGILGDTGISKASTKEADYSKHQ
UniProt Q96HJ5: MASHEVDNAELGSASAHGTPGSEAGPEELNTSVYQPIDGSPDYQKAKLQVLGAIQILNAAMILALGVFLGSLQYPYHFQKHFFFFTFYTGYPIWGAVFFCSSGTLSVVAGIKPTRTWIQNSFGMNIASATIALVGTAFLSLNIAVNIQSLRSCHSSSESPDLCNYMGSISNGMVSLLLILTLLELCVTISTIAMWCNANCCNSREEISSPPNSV
UniProt P03923, whole entry, looked up: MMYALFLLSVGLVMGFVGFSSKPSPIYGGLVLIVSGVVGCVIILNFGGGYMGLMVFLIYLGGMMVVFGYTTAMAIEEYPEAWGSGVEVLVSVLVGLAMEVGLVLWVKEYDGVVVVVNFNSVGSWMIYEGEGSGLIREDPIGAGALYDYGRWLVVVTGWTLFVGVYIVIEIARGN
UniProt Q9HD23: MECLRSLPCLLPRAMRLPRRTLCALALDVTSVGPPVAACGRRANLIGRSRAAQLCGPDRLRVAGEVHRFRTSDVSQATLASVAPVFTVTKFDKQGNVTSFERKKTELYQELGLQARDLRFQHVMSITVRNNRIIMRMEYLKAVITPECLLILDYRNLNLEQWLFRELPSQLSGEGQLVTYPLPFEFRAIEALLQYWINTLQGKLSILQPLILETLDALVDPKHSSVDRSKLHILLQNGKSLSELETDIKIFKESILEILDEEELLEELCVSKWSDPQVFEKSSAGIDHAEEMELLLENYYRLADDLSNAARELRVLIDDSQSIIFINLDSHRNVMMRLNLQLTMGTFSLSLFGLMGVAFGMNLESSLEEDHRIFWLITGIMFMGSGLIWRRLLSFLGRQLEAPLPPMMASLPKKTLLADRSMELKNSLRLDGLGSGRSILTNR
UniProt P03897, whole entry, looked up: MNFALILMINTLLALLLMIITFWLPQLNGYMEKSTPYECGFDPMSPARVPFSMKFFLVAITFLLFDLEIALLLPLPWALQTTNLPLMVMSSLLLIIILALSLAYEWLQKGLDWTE
UniProt O43312: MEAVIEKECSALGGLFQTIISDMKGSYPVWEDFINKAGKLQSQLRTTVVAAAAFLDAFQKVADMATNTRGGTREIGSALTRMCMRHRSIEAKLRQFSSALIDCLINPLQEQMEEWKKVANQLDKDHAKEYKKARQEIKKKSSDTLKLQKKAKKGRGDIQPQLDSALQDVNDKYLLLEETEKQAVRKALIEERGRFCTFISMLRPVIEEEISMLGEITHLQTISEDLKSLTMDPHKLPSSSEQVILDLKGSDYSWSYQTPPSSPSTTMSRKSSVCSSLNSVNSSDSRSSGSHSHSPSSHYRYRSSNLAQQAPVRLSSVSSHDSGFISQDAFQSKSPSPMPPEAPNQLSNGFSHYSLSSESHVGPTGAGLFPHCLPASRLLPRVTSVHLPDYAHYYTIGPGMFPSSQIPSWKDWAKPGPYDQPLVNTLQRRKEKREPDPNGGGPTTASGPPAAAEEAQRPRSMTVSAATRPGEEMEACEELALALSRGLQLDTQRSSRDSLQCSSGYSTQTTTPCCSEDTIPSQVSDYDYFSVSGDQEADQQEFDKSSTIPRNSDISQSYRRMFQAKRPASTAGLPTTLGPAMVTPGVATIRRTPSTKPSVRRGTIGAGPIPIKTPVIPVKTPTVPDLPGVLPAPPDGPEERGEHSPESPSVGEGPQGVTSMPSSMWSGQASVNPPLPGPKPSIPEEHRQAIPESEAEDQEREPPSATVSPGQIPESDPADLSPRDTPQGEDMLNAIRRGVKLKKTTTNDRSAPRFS

Tests used:
Experiment in all cases: log2 fold change, soluble protein after heating vs DMSO (PISA); higher = thermal stabilisation; K562 lysate, 10 uM; active = over 0.2 and 3.5 SD of the protein, either way, in both replicates (recomputed)
alvocidib = compound: CN1CC[C@H](c2c(O)cc(O)c3c(=O)cc(-c4ccccc4Cl)oc23)[C@H](O)C1 [alvocidib]
Summary of the method: (§1)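 A 30 min treatment with 10 μM compound was applied to crude K562 extract at 1 mg/mL protein in PBS pH 7.4 with 1 mM MgCl2. Heating for 3 min spanned 48°C-58°C, after which aliquots were pooled, adjusted to 0.5% NP-40 at 4°C and spun at 21,000xg for 90 min. TMTpro 16plex LC-MS/MS of the supernatant, with channel sums equalised, gave values recorded as log-two fold change in thermal stability against solvent controls, from duplicates.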

[1] = compound: CNc1nc(-c2ccc3c(N)n[nH]c3c2)cc(N2C[C@@H](C(=O)NC3CCCCC3)CC[C@H]2C)n1
Summary of the method: as §1

encorafenib = compound: COC(=O)N[C@@H](C)CNc1nccc(-c2cn(C(C)C)nc2-c2cc(Cl)cc(NS(C)(=O)=O)c2F)n1 [encorafenib]
Summary of the method: as §1

[2] = compound: COC(=O)[C@H](CCSC)NC(=O)C1=C(C=C(C=C1)NC[C@H](CS)N)C2=CC=CC=C2
Summary of the method: as §1

[3] = compound: COc1cc2nc(-c3cc(F)ccc3O)nc(N[C@@H]3CNC[C@H]3C(C)(C)O)c2cc1OC
Summary of the method: as §1

lapatinib = compound: CS(=O)(=O)CCNCc1ccc(-c2ccc3ncnc(Nc4ccc(OCc5cccc(F)c5)c(Cl)c4)c3c2)o1 [lapatinib]
Summary of the method: as §1

pictilisib = compound: CS(=O)(=O)N1CCN(Cc2cc3nc(-c4cccc5[nH]ncc45)nc(N4CCOCC4)c3s2)CC1 [pictilisib]
Summary of the method: as §1

crizotinib = compound: C[C@@H](Oc1cc(-c2cnn(C3CCNCC3)c2)cnc1N)c1c(Cl)ccc(F)c1Cl [crizotinib]
Summary of the method: as §1

[4] = compound: C[C@H](C1=CC=C(C=C1)C(=O)NC2=C3C=CNC3=NC=C2)N
Summary of the method: as §1

duvelisib = compound: C[C@H](Nc1ncnc2nc[nH]c12)c1cc2cccc(Cl)c2c(=O)n1-c1ccccc1 [duvelisib]
Summary of the method: as §1

gandotinib = compound: Cc1cc(Nc2cc(CN3CCOCC3)c3nc(C)c(Cc4ccc(Cl)cc4F)n3n2)n[nH]1 [gandotinib]
Summary of the method: as §1

tozasertib = compound: Cc1cc(Nc2cc(N3CCN(C)CC3)nc(Sc3ccc(NC(=O)C4CC4)cc3)n2)n[nH]1 [tozasertib]
Summary of the method: as §1

doramapimod = compound: Cc1ccc(-n2nc(C(C)(C)C)cc2NC(=O)Nc2ccc(OCCN3CCOCC3)c3ccccc23)cc1 [doramapimod]
Summary of the method: as §1

bafetinib = compound: Cc1ccc(NC(=O)c2ccc(CN3CC[C@H](N(C)C)C3)c(C(F)(F)F)c2)cc1Nc1nccc(-c2cncnc2)n1 [bafetinib]
Summary of the method: as §1

[5] = compound: Cc1cccc(CC(=O)N2CCc3c2ccc(-c2cn(C)c4ncnc(N)c24)c3F)n1
Summary of the method: as §1

[6] = compound: CNC(=O)C1=CC=CC=C1NC2=NC(=NC=C2Cl)NC3=C(C=C(C=C3)N4CCOCC4)OC
Summary of the method: as §1

alisertib = compound: COc1cc(Nc2ncc3c(n2)-c2ccc(Cl)cc2C(c2c(F)cccc2OC)=NC3)ccc1C(=O)O [alisertib]
Summary of the method: as §1

gefitinib = compound: COc1cc2ncnc(Nc3ccc(F)c(Cl)c3)c2cc1OCCCN1CCOCC1 [gefitinib]
Summary of the method: as §1

Tubastatin A = compound: CN1CCc2c(c3ccccc3n2Cc2ccc(C(=O)NO)cc2)C1 [Tubastatin A]
Summary of the method: as §1

defactinib = compound: CNC(=O)c1ccc(Nc2ncc(C(F)(F)F)c(NCc3nccnc3N(C)S(C)(=O)=O)n2)cc1 [defactinib]
Summary of the method: as §1

Target	log2 fold change (alvocidib)	log2 fold change [1]	log2 fold change (encorafenib)	log2 fold change [2]	log2 fold change [3]	log2 fold change (lapatinib)	log2 fold change (pictilisib)	log2 fold change (crizotinib)	log2 fold change [4]	log2 fold change (duvelisib)	log2 fold change (gandotinib)	log2 fold change (tozasertib)	log2 fold change (doramapimod)	log2 fold change (bafetinib)	log2 fold change [5]	log2 fold change [6]	log2 fold change (alisertib)	log2 fold change (gefitinib)	log2 fold change (Tubastatin A)	log2 fold change (defactinib)
MRPL34 (UniProt Q9BQ48)	inactive: 0.022	inactive: 0.071	inactive: 0.167	inactive: 0.259	inactive: 0.017	inactive: -0.101	inactive: -0.097	inactive: -0.044	inactive: 0.031	inactive: 0.23	inactive: -0.013	inactive: -0.084	inactive: -0.176	inactive: -0.01	inactive: -0.029					
MTFMT (UniProt Q96DP5)	inactive: -0.255	inactive: 0.052			inactive: 0.222	inactive: 0.123		inactive: 0.106	inactive: -0.152	inactive: 0.243	inactive: 0.016		inactive: 0.101		inactive: 0.195	inactive: 0.043	inactive: -0.069	inactive: -0.211		
MTHFD2L (UniProt Q9H903)	inactive: -0.037						inactive: -0.174	inactive: -0.183	inactive: -0.097		inactive: 0.099		inactive: -0.103	inactive: -0.182	inactive: -0.117	inactive: 0.045				
MSH5 isoform 3 (UniProt O43196)		inactive: 0.494	inactive: 0.13	inactive: 0.106	inactive: 0.061	inactive: -0.068		inactive: -0.287		inactive: 0.197		inactive: 0.629	inactive: 0.296						inactive: -0.057	
MRPS21 (UniProt P82921)	inactive: -0.027	inactive: 0.292	inactive: 0.019	inactive: -0.065	inactive: -0.251	inactive: -0.104	inactive: 0.267	inactive: -0.086	inactive: 0.038	inactive: 0	inactive: -0.08	inactive: 0.129	inactive: -0.123	inactive: 0.064	inactive: 0.006		inactive: -0.089	inactive: 0.025		inactive: 0.056
MSH4 (UniProt O15457)	inactive: -0.021								inactive: 0.331		inactive: -0.158				inactive: 0.196				inactive: -0.05	inactive: 0.271
MRPS15 (UniProt P82914)	inactive: -0.043	inactive: 0.231	inactive: -0.047	inactive: 0.073	inactive: 0.062	inactive: -0.022	inactive: -0.034	inactive: -0.073	inactive: -0.055	inactive: 0.051	inactive: 0.077	inactive: 0.041	inactive: 0.073	inactive: -0.234	inactive: 0.19	inactive: 0.002	inactive: 0.026	inactive: -0.031	inactive: -0.018	
MTHFR (UniProt F8W9T8)							inactive: -0.129							inactive: -0.062			inactive: -0.136	inactive: 0.087		
MUC19 (UniProt Q7Z5P9)	inactive: 0.035				inactive: 0.019	inactive: -0.06	inactive: 0.011		inactive: 0.032		inactive: -0.033			inactive: -0.078	inactive: -0.019				inactive: 0.082	
MTMR4 (UniProt Q9NYA4)	inactive: 0.033	inactive: -0.014			inactive: -0.103	inactive: 0.019		inactive: -0.088	inactive: -0.078	inactive: 0.01	inactive: 0.025		inactive: -0.106		inactive: 0.113	inactive: 0.013	inactive: -0.074	inactive: -0.093	inactive: -0.108	inactive: 0.034
MT-ATP8 (UniProt P03928)	inactive: 0.044		inactive: -0.071	inactive: -0.139	inactive: -0.078	inactive: 0.024	inactive: -0.002	inactive: -0.121	active: 0.402		inactive: -0.054	inactive: -0.078	inactive: 0.011	inactive: -0.087	inactive: -0.107	inactive: 0.08	inactive: -0.017	inactive: -0.081	inactive: 0.072	inactive: 0.017
MTMR10 (UniProt Q9NXD2)		inactive: -0.068			inactive: 0	inactive: -0.086		inactive: 0.041		inactive: 0.058			inactive: 0.008			inactive: -0.01	inactive: 0.029	inactive: 0.1	inactive: 0.116	
MT-CO3 (UniProt P00414)	inactive: -0.078	inactive: 0.148							inactive: -0.368	inactive: -0.13	inactive: 0.141				inactive: 0.187					inactive: -0.304
MTTP (UniProt P55157)							inactive: -0.453							inactive: 0.217						
MSL2 (UniProt Q9HCI7)			inactive: 0.057	inactive: 0.056				inactive: -0.082				inactive: -0.005	inactive: -0.017			inactive: 0.033	inactive: -0.034	inactive: 0.002	inactive: 0.002	inactive: 0.07
MTMR8 (UniProt Q96EF0)		inactive: -0.114					inactive: 0.123			inactive: 0.089				inactive: -0.2		inactive: 0.064				
MUC5AC (UniProt P98088)																	inactive: -0.233	inactive: 0.013	inactive: -0.03	
MS4A3 (UniProt Q96HJ5)			inactive: 0.017	inactive: -0.12	inactive: 0.183	inactive: -0.017		inactive: -0.106				inactive: 0.002	inactive: 0.074							inactive: -0.07
MT-ND6 (UniProt P03923)	inactive: -0.048				inactive: -0.03	inactive: -0.056		inactive: -0.263	inactive: -0.188		inactive: 0.133		inactive: 0.046		inactive: 0.182	inactive: -0.086			inactive: 0.136	
MRS2 isoform 2 (UniProt Q9HD23)								inactive: -0.113					inactive: 0.064				inactive: 0.105	inactive: 0.057		
MT1G (UniProt P13640)	inactive: -0.016	inactive: 0.205	inactive: -0.016	inactive: -0.135	inactive: -0.102	inactive: 0.07	inactive: 0.019	inactive: 0.053	inactive: -0.037	inactive: 0.067	inactive: 0.016	inactive: 0.104	inactive: 0.086	inactive: 0.063	inactive: 0.043	inactive: 0.186	inactive: -0.077	inactive: -0.118		inactive: 0.023
MRPL30 isoform 2 (UniProt Q8TCC3)	active: 0.419	inactive: -0.002	inactive: -0.049	inactive: -0.034	inactive: -0.003	inactive: 0.03	inactive: -0.029	inactive: -0.094	active: 0.746	inactive: 0.068	active: -0.373	inactive: 0.158	inactive: 0.013	inactive: 0.043	active: -0.458	inactive: -0.003	inactive: -0.033	inactive: -0.013	inactive: 0.034	
MTIF3 (UniProt Q9H2K0)	inactive: 0.01	inactive: 0.072			inactive: -0.037	inactive: -0.034	inactive: -0.151		inactive: -0.043	inactive: -0.014	inactive: 0.012			inactive: -0.027	inactive: -0.013	inactive: -0.063	inactive: 0	inactive: 0.086	inactive: 0.059	inactive: -0.008
MT-ND3 (UniProt P03897)	inactive: 0.292		inactive: 0.055	inactive: -0.026	inactive: -0.265	inactive: 0.156	inactive: -0.021	inactive: 0.033	inactive: 0.036		inactive: -0.015	inactive: 0.036	inactive: -0.134	inactive: -0.136	inactive: 0.01	inactive: -0.076	inactive: -0.06	inactive: 0.179	inactive: 0.126	
MTCL1 (UniProt Q9Y4B5)		inactive: 0.101	inactive: -0.014	inactive: 0.051	inactive: -0.017	inactive: -0.028	inactive: -0.156	inactive: -0.056		inactive: 0.011		inactive: 0.008	inactive: 0.11	inactive: 0.065		inactive: -0.063			inactive: -0.056	inactive: -0.039
MTSS1 isoform 5 (UniProt O43312)		inactive: -0.736			inactive: -0.233	inactive: 0.089		inactive: -0.003		inactive: -0.975			inactive: 0.066				inactive: -0.622	inactive: 0.177	inactive: 0.627	
MTHFSD (UniProt Q2M296)		inactive: 0.02	inactive: 0.023	inactive: -0.051	inactive: -0.028	inactive: 0.016	inactive: -0.037	inactive: -0.052		inactive: -0.062		inactive: 0.014	inactive: 0.014	inactive: 0.003		inactive: 0.035	inactive: 0.148	inactive: -0.151		

Taken from the listing (6 entries):
Target	log2 fold change (alvocidib)	log2 fold change [1]	log2 fold change (encorafenib)	log2 fold change [2]	log2 fold change [3]	log2 fold change (lapatinib)	log2 fold change (pictilisib)	log2 fold change (crizotinib)	log2 fold change [4]	log2 fold change (duvelisib)	log2 fold change (gandotinib)	log2 fold change (tozasertib)	log2 fold change (doramapimod)	log2 fold change (bafetinib)	log2 fold change [5]	log2 fold change [6]	log2 fold change (alisertib)	log2 fold change (gefitinib)	log2 fold change (Tubastatin A)	log2 fold change (defactinib)
MT-ND6 (UniProt P03923)	inactive: -0.048				inactive: -0.03	inactive: -0.056		inactive: -0.263	inactive: -0.188		inactive: 0.133		inactive: 0.046		inactive: 0.182	inactive: -0.086			inactive: 0.136	
MRS2 isoform 2 (UniProt Q9HD23)								inactive: -0.113					inactive: 0.064				inactive: 0.105	inactive: 0.057		
MT1G (UniProt P13640)	inactive: -0.016	inactive: 0.205	inactive: -0.016	inactive: -0.135	inactive: -0.102	inactive: 0.07	inactive: 0.019	inactive: 0.053	inactive: -0.037	inactive: 0.067	inactive: 0.016	inactive: 0.104	inactive: 0.086	inactive: 0.063	inactive: 0.043	inactive: 0.186	inactive: -0.077	inactive: -0.118		inactive: 0.023
MRPL30 isoform 2 (UniProt Q8TCC3)	active: 0.419	inactive: -0.002	inactive: -0.049	inactive: -0.034	inactive: -0.003	inactive: 0.03	inactive: -0.029	inactive: -0.094	active: 0.746	inactive: 0.068	active: -0.373	inactive: 0.158	inactive: 0.013	inactive: 0.043	active: -0.458	inactive: -0.003	inactive: -0.033	inactive: -0.013	inactive: 0.034	
MTIF3 (UniProt Q9H2K0)	inactive: 0.01	inactive: 0.072			inactive: -0.037	inactive: -0.034	inactive: -0.151		inactive: -0.043	inactive: -0.014	inactive: 0.012			inactive: -0.027	inactive: -0.013	inactive: -0.063	inactive: 0	inactive: 0.086	inactive: 0.059	inactive: -0.008
MT-ND3 (UniProt P03897)	inactive: 0.292		inactive: 0.055	inactive: -0.026	inactive: -0.265	inactive: 0.156	inactive: -0.021	inactive: 0.033	inactive: 0.036		inactive: -0.015	inactive: 0.036	inactive: -0.134	inactive: -0.136	inactive: 0.01	inactive: -0.076	inactive: -0.06	inactive: 0.179	inactive: 0.126	
